The other results are listed elsewhere or left out. Single values are uncertain, as repeats are few or missing.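 The apoptosis fraction was the count of cleaved-PARP antibody-stained nuclei relative to all DNA-stained nuclei, imaged in 1,536-well plates. Screening doses were set so most cells survived, and baseline and induced cleaved-PARP levels vary greatly across cell lines.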
What was measured:
Test in all cases: cleaved PARP positive nuclei fraction relative to DMSO control; melanoma cells; higher = more apoptosis
Conditions in all cases: library dose: low library concentration; 72 h
[1] = system: 501Mel
[2] = system: A101D
[3] = system: A2058
[4] = system: A375
[5] = system: C32
[6] = system: CBRC013 (line from a melanoma biopsy)
[7] = system: CBRC014 (line from a melanoma biopsy)
[8] = system: CBRC016 (line from a melanoma biopsy)
[9] = system: CBRC017 (line from a melanoma biopsy)
[10] = system: CBRC034 (line from a melanoma biopsy)
[11] = system: COLO792
[12] = system: COLO800
[13] = system: COLO829
[14] = system: G361
[15] = system: IPC-298
[16] = system: IST-MEL1
[17] = system: LB2518-MEL
[18] = system: LOXIMVI

| Structure (SMILES) | cleaved PARP positive nuclei fraction [1] [%] | cleaved PARP positive nuclei fraction [2] [%] | cleaved PARP positive nuclei fraction [3] [%] | cleaved PARP positive nuclei fraction [4] [%] | cleaved PARP positive nuclei fraction [5] [%] | cleaved PARP positive nuclei fraction [6] [%] | cleaved PARP positive nuclei fraction [7] [%] | cleaved PARP positive nuclei fraction [8] [%] | cleaved PARP positive nuclei fraction [9] [%] | cleaved PARP positive nuclei fraction [10] [%] | cleaved PARP positive nuclei fraction [11] [%] | cleaved PARP positive nuclei fraction [12] [%] | cleaved PARP positive nuclei fraction [13] [%] | cleaved PARP positive nuclei fraction [14] [%] | cleaved PARP positive nuclei fraction [15] [%] | cleaved PARP positive nuclei fraction [16] [%] | cleaved PARP positive nuclei fraction [17] [%] | cleaved PARP positive nuclei fraction [18] [%] |
| --- | --- | --- | --- | --- | --- | --- | --- | --- | --- | --- | --- | --- | --- | --- | --- | --- | --- | --- |
| C#Cc1cccc(Nc2ncnc3cc(OCCOC)c(OCCOC)cc23)c1 [erlotinib] + c1cc(-c2cnn3cc(-c4ccc(OCCN5CCCCC5)cc4)cnc23)ccn1 [Dorsomorphin] (first compound 0.8 µM, partner dose 0.4 µM) | 99.3 | 301 | 42.6 | 74.3 | 28.1 | 123 | 106 | 138 | 88.1 | 83 | 202 | 165 | 99.2 | 106 | 102 | 43.4 | 279 | 97.6 |
| Cc1ccc(NC(=O)c2cccc(N(C)C)c2)cc1NC(=O)c1ccc(O)cc1 + O=C(Nc1ccccc1)c1cc([N+](=O)[O-])ccc1Cl [GW9662] (first compound 2 µM, partner dose 2 µM) | 118 | 65.9 | 135 | 56.2 | 356 | 247 | 104 | 140 | 104 | 44.8 | 88.7 | 148 | 53.1 | 31.5 | 186 | 115 | 97.7 | 39 |
| O=C(CCCCCCC(=O)Nc1ccccc1)NO [vorinostat] + Oc1cc(-c2nc(-c3ccccc3)[nH]c2-c2ccncc2)ccc1Cl [L779450] (first compound 0.08 µM, partner dose 0.2 µM) | 122 | 56.9 | 65.3 | 42.5 | 237 | 21.8 | 128 | 89.5 | 100 | 92.2 | 147 | 113 | 95.9 | 177 | 193 | 236 | 191 | 59.3 |
| O=C(Nc1cccc(Cl)c1)Nc1ncc(CCNc2ncnc3ccsc23)s1 + CCN(CC)CCCCNc1ncc2cc(-c3cc(OC)cc(OC)c3)c(NC(=O)NC(C)(C)C)nc2n1 [PD173074] (first compound 0.0008 µM, partner dose 0.1 µM) | 169 | 146 | 30.9 | 144 | 133 | 54.4 | 104 | 81.5 | 90.8 | 68.8 | 119 | 228 | 65.1 | 49.5 | 78 | 30.5 | 185 | 31.2 |
| Cn1c(Nc2ccc(C(F)(F)F)cc2)nc2cc(Oc3ccnc(-c4ncc(C(F)(F)F)[nH]4)c3)ccc21 + O=C(O)C(=O)Nc1sc2c(c1C(=O)O)CCNC2 [TCS401] (first compound 0.08 µM, partner dose 1.66667 µM) | 108 | 186 | 21.4 | 395 | 67.7 | 461 | 110 | 109 | 194 | 99.8 | 237 | 200 | 89.2 | 234 | 226 | 192 | 295 | 197 |
| CC1(C)NC(=O)N(c2ccc([N+](=O)[O-])c(C(F)(F)F)c2)C1=O [nilutamide] + c1cc(-c2cnn3cc(-c4ccc(OCCN5CCCCC5)cc4)cnc23)ccn1 [Dorsomorphin] (first compound 1 µM, partner dose 0.4 µM) | 82.7 | 183 | 59 | 134 | 143 | 67.2 | 106 | 23.6 | 116 | 94.4 | 55.9 | 80 | 114 | 52 | 80.3 | 271 | 85.7 | 98.5 |
| COCC[n+]1c2c(n(Cc3cnccn3)c1C)C(=O)c1ccccc1C2=O + CCCCCCCCCCCC1=C(O)C(=O)C=C(O)C1=O [Embelin] (first compound 0.0004 µM, partner dose 1.2 µM) | 74.8 | 112 | 94.2 | 58.3 | 172 | 111 | 93.5 | 79.9 | 147 | 42.3 | 128 | 97.5 | 84.6 | 89.4 | 90.4 | 46.2 | 86.4 | 131 |
